At least one structure is not confirmed: it was looked up by name or label, or the drawing left a doubt.
Columns and labels:
[1] = tested on: mouse leukemia L1210 cells; assay: Inhibition of L1210 cell growth; format: cell-based; conditions: in words
Procedure: Preliminary biological data for inhibiting cell growth of murine L1210 leukemic cells and human acute promyelocytic leukemia cells (HL-60) during 72 h of exposure to the compounds are given in Table IV. The potencies for inhibiting [^3 H]TdR incorporation into DNA in HL-60 cells during the initial 30-min period are also given in Table IV. It is interesting to note that 1,8-di-O-methyl derivatives are uniformly devoid of activity against L1210 leukemic cells. […] The B/A ratios allow an indirect estimation of whether or not cytotoxicities exerted by these analogues are primarily due to initial inhibition of DNA synthesis. […] Whether these analogues, like m-AMSA, ellipticine, or anthracyclines, act by inhibiting DNA topoisomerase II remains to be explored. […] Our preliminary experiments indicate that the compounds arrest cells in the S and/or G2 phases of the cell cycle (unpublished results).

[2] = tested on: DNA (native and thermally denatured); assay: Spectrophotometric study of DNA interaction; format: binding, calf thymus; conditions: absorption spectra
Procedure: Some representative compounds were studied for their ability to interact with nucleic acids in solution by comparison of the electronic spectrum of drug alone with that of the drug in the presence of an excess of nucleic acid. All drugs studied have an absorption band in the visible region, separate from the absorption band of the nucleic acids, and therefore any changes in band intensity and position were indicative of drug chromophore-DNA interaction.
Absorption spectra were measured with an IBM 9410 UV-visible spectrometer interfaced to an HP 9826 computer. Small volumes of the stock drug solutions (2 mg/mL in Me2 SO) were added to 2 mL of buffer (0.01 or 0.1 M NaCl, 5 mM Hepes, pH 7) to obtain a final drug concentration of 5-15 μM, or to the solution of native or thermally denatured DNA (0.2 and 0.1 mM, respectively) in the buffer. After incubation at room temperature for 10 min, the spectra were recorded in the 300-600 nm range (increment 1 nm) and corrected by subtracting the spectrum of the blank which was measured before addition of the drug.

Cc1cc(O)c2c(c1)C(=O)c1cccc(O)c1C2=O [IIa, chrysophanol]
anticancer or cytocidal activity [1]: little anticancer or cytocidal activity | interaction with DNA [2]: do not appear to interact with DNA to any significant extent
